No constants are given. Whether binding was seen depends on the method and setting. For some assays here: In cells and extracts the contact can be indirect. Some results given as binding are weak or reduced against the parent protein; the word gives no strength. Sequences can lack the tags named with a protein.

In experiment [1] the target is T1, ASX-C terminal domain (ASX-C, amino-acids 1139 to 1668), two-hybrid bait (Drosophila) (UniProt Q9V727).
T1 sequence: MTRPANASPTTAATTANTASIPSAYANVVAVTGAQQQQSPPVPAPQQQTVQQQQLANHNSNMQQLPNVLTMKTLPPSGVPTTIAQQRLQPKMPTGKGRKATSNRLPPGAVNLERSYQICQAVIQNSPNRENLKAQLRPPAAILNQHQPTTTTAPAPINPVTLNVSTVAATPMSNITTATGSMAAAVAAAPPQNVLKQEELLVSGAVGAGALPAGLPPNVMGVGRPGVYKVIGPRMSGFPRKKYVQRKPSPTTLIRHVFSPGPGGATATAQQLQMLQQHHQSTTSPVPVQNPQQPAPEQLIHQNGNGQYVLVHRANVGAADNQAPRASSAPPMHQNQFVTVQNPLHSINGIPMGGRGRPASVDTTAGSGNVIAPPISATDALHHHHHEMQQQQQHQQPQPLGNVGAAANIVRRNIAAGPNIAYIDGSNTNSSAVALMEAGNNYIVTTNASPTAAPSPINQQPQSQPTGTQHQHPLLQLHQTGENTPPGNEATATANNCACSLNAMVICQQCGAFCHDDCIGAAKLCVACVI
Briefly: two-hybrid; yeast two-hybrid assays, data not shown; ASX-C with Cyclin G 1 to 275.

The target in experiment [2] is T2, Myc-ASX-C (amino-acids 1139 to 1668) (Drosophila melanogaster) (UniProt Q9V727).
T2 sequence: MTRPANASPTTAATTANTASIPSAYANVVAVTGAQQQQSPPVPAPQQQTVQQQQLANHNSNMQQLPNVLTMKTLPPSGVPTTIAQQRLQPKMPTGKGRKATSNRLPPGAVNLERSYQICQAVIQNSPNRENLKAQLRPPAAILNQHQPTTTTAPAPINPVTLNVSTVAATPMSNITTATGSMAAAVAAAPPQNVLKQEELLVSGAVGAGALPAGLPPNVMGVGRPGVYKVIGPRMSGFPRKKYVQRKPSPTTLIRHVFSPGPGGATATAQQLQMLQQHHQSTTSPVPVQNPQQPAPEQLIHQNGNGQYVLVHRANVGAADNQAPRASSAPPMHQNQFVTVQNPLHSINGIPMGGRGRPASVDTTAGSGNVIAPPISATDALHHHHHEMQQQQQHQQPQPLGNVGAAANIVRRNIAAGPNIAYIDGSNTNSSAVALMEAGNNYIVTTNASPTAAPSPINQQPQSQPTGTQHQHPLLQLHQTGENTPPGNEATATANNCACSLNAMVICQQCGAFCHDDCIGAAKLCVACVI
Briefly: co-IP; co-transfected S2 cells, 1% paraformaldehyde 10 min on ice before extraction; 500 μg total cell extract, anti-Myc, anti-FLAG or anti-HA (mock) overnight at 4°C, Protein G beads, ELB buffer washes; Western blot with anti-Myc and anti-FLAG. In general terms: A western blot detects proteins with antibodies after separation by electrophoresis.

Experiment [3] deals with T3, FLAG-CycG 1 to 130 (Drosophila melanogaster) (UniProt Q95TJ9).
T3 sequence: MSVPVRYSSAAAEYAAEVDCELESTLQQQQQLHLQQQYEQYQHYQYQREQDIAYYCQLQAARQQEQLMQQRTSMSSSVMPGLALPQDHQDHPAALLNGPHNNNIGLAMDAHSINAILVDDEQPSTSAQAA
Described as above.

For experiment [4], the target named is Additional sex combs (ASX), endogenous (Drosophila melanogaster (endogenous in third instar larvae)) (UniProt Q9V727). Nature of the experiment: co-IP; protein extracts of da > Myc-CycG^ΔP third instar larvae, 1% paraformaldehyde 10 min at room temperature; anti-Myc, anti-ASX N-ter or anti-HA (mock) on Dynabeads Protein G, overnight at 4°C, ELB buffer washes; Western blot with anti-Myc.

B1: Cyclin G deleted form containing only the 275 N-terminal residues, two-hybrid fusion (domain or fragment, UniProt Q95TJ9 1-275)
chain: MSVPVRYSSAAAEYAAEVDCELESTLQQQQQLHLQQQYEQYQHYQYQREQDIAYYCQLQAARQQEQLMQQRTSMSSSVMPGLALPQDHQDHPAALLNGPHNNNIGLAMDAHSINAILVDDEQPSTSAQAAAAAAASAGGSAGAGSGSGLGGAIGGGKLANGINRNAEMPTDWMRIADEGRYGTPGAAGLEYQKYEQQQQLEDLAESEAGAVGGASNNNGESSSSLKKLEDQLHALTSDELYETLKEYDVLQDKFHTVLLLPKESRREVTAGGRDG
With B1, the binding entry in experiment [1] is “binds”.

B2: FLAG-Cyclin G full-length (protein, UniProt Q95TJ9 1-566)
chain: MSVPVRYSSAAAEYAAEVDCELESTLQQQQQLHLQQQYEQYQHYQYQREQDIAYYCQLQAARQQEQLMQQRTSMSSSVMPGLALPQDHQDHPAALLNGPHNNNIGLAMDAHSINAILVDDEQPSTSAQAAAAAAASAGGSAGAGSGSGLGGAIGGGKLANGINRNAEMPTDWMRIADEGRYGTPGAAGLEYQKYEQQQQLEDLAESEAGAVGGASNNNGESSSSLKKLEDQLHALTSDELYETLKEYDVLQDKFHTVLLLPKESRREVTAGGRDGSAYVLRCLKMWYELPSDVLFSAMSLVDRFLDRMAVKPKHMACMSVASFHLAIKQLDLKPIPAEDLVTISQCGCTAGDLERMAGVIANKLGVQMGHAPITSVSYLRIYYALFRNLAKEIGGDFFKFYQQLIKLEELENRLEILMCDVKTTVITPSTLALVLICLHLDFHIKESYTRGSPELKHVFEYILFLQQYMRIPDRVFTCGFSIVSGILSHYNGQNKAPYKQRLVWKLSSRTLRVLRPINRFSSDLPTIEEGIPNALDDGLRSRTESISSEEEEDWPTSPIIPIFEQC
For the molecule B2, the binding entry in experiment [2] is given as “binds”.

B3: FLAG-CycG 130 to 566 (domain or fragment, UniProt Q95TJ9 130-566)
chain: AAAAAASAGGSAGAGSGSGLGGAIGGGKLANGINRNAEMPTDWMRIADEGRYGTPGAAGLEYQKYEQQQQLEDLAESEAGAVGGASNNNGESSSSLKKLEDQLHALTSDELYETLKEYDVLQDKFHTVLLLPKESRREVTAGGRDGSAYVLRCLKMWYELPSDVLFSAMSLVDRFLDRMAVKPKHMACMSVASFHLAIKQLDLKPIPAEDLVTISQCGCTAGDLERMAGVIANKLGVQMGHAPITSVSYLRIYYALFRNLAKEIGGDFFKFYQQLIKLEELENRLEILMCDVKTTVITPSTLALVLICLHLDFHIKESYTRGSPELKHVFEYILFLQQYMRIPDRVFTCGFSIVSGILSHYNGQNKAPYKQRLVWKLSSRTLRVLRPINRFSSDLPTIEEGIPNALDDGLRSRTESISSEEEEDWPTSPIIPIFEQC
In the case of B3, the binding result in experiment [2] is given as “binds”.

B4: Myc-ASX-C (amino-acids 1139 to 1668) (domain or fragment, UniProt Q9V727 1139-1668)
chain: MTRPANASPTTAATTANTASIPSAYANVVAVTGAQQQQSPPVPAPQQQTVQQQQLANHNSNMQQLPNVLTMKTLPPSGVPTTIAQQRLQPKMPTGKGRKATSNRLPPGAVNLERSYQICQAVIQNSPNRENLKAQLRPPAAILNQHQPTTTTAPAPINPVTLNVSTVAATPMSNITTATGSMAAAVAAAPPQNVLKQEELLVSGAVGAGALPAGLPPNVMGVGRPGVYKVIGPRMSGFPRKKYVQRKPSPTTLIRHVFSPGPGGATATAQQLQMLQQHHQSTTSPVPVQNPQQPAPEQLIHQNGNGQYVLVHRANVGAADNQAPRASSAPPMHQNQFVTVQNPLHSINGIPMGGRGRPASVDTTAGSGNVIAPPISATDALHHHHHEMQQQQQHQQPQPLGNVGAAANIVRRNIAAGPNIAYIDGSNTNSSAVALMEAGNNYIVTTNASPTAAPSPINQQPQSQPTGTQHQHPLLQLHQTGENTPPGNEATATANNCACSLNAMVICQQCGAFCHDDCIGAAKLCVACVI
As for B4, the binding result in experiment [3] was “binds”.

B5: Myc-Cyclin G deleted of the 25 C-terminal amino-acids (Myc-CycG^ΔP) (domain or fragment, UniProt Q95TJ9 1-541)
chain: MSVPVRYSSAAAEYAAEVDCELESTLQQQQQLHLQQQYEQYQHYQYQREQDIAYYCQLQAARQQEQLMQQRTSMSSSVMPGLALPQDHQDHPAALLNGPHNNNIGLAMDAHSINAILVDDEQPSTSAQAAAAAAASAGGSAGAGSGSGLGGAIGGGKLANGINRNAEMPTDWMRIADEGRYGTPGAAGLEYQKYEQQQQLEDLAESEAGAVGGASNNNGESSSSLKKLEDQLHALTSDELYETLKEYDVLQDKFHTVLLLPKESRREVTAGGRDGSAYVLRCLKMWYELPSDVLFSAMSLVDRFLDRMAVKPKHMACMSVASFHLAIKQLDLKPIPAEDLVTISQCGCTAGDLERMAGVIANKLGVQMGHAPITSVSYLRIYYALFRNLAKEIGGDFFKFYQQLIKLEELENRLEILMCDVKTTVITPSTLALVLICLHLDFHIKESYTRGSPELKHVFEYILFLQQYMRIPDRVFTCGFSIVSGILSHYNGQNKAPYKQRLVWKLSSRTLRVLRPINRFSSDLPTIEEGIPNALDDGLRS
Take B5: in experiment [4], the binding entry is on record as “binds”.

(Values after paper PMC4438588.)
